{"source": "PubChem BioAssay AID445", "about": "(National Center for Advancing Translational Sciences (NCATS), 2006)", "assay": "IkB Signaling", "conditions": "ABC-DLBCL IkBa-CBG/CBR dual luciferase ratio (green luciferase fused to IkBa over red control in OCI-Ly3 lymphoma cells), 4 h", "method_in_brief": "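Luminescence ratio of IκBα-fused green versus native red beetle luciferase in OCI-Ly3 cells, 4 h post-doxycycline with compound; red signal alone, scaled from basal (0%) to zero light (-100%), flagged nonspecific or cytotoxic effects.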", "key": {"[1]": {"conditions": "measured here: control luc red channel unless noted"}, "[2]": {"conditions": "measured here: IkB-luc green channel"}, "[3]": {"conditions": "measured here: control luc red channel"}}, "note": "Some of the results follow. Further columns of the screen follow, without active or inactive calls. Most of these compounds were active or inconclusive in the main read-out, so they are no random draw. Words in brackets tell the shape of the fitted curve; partial curves, single points and poor fits give uncertain potencies."}
{"smiles": "O=C(COc1ccc(Cl)cc1)NCC(c1ccco1)S(=O)(=O)c1ccc(Cl)cc1", "note": "(configuration not stated)", "values": [{"measurement": "AC50", "setting": "[1]", "result": "20 µM [falling, partial curve]"}]}
{"smiles": "COc1ccc(CNC(=O)c2cc3c(=O)n(C)c4ccccc4c3n2C)c(OC)c1", "values": [{"measurement": "AC50", "setting": "[1]", "result": "25.1 µM [falling, single point]"}]}
{"smiles": "Cc1cc(C)c2oc(-c3ccc(C)c(NC(=O)/C=C/c4ccco4)c3)nc2c1", "values": [{"measurement": "AC50", "setting": "[2]", "result": "31.6 µM [rising, single point]"}, {"measurement": "AC50", "setting": "[3]", "result": "20 µM [rising, partial curve]"}]}
{"smiles": "Nc1nc(C2CC2)c(Sc2sc(N)nc2C2CC2)s1", "values": [{"measurement": "AC50", "setting": "[1]", "result": "12.6 µM [falling, partial curve]"}]}
{"smiles": "O=C(c1ccc(Cl)cc1)C1CCN(C(=O)NC2CCCCC2)CC1", "values": [{"measurement": "AC50", "setting": "[1]", "result": "31.6 µM [falling, partial curve, poor fit]"}]}
{"smiles": "CCCc1cc(=O)oc2c(C)c3c(cc12)CN(CCc1ccc(Cl)cc1)CO3", "values": [{"measurement": "AC50", "setting": "[1]", "result": "25.1 µM [falling, single point]"}]}
{"smiles": "CC1CCC(NC(=O)CN2C(=O)C3CCCN3c3ncc(Cl)cc32)CC1", "note": "(configuration not stated)", "values": [{"measurement": "AC50", "setting": "[1]", "result": "3.16 µM [falling, full curve]"}]}
{"smiles": "Clc1cccc(-c2nc3nc4ccccc4nc3n2Cc2ccco2)c1", "values": [{"measurement": "AC50", "setting": "[1]", "result": "1.26 µM [falling, partial curve]"}]}
{"smiles": "N[C@@H]1CCN(O)C1=O", "values": [{"measurement": "AC50", "setting": "[1]", "result": "10 µM [rising, full curve]"}]}
{"smiles": "Cc1ccc2c(c1)Cc1c(nc(-c3ccc(F)cc3)nc1SCC(=O)N1CCCCC1)O2", "values": [{"measurement": "AC50", "setting": "[1]", "result": "39.8 µM [falling, single point]"}]}
{"smiles": "COc1cc(C(=O)Oc2c(CN3CCOCC3)cc(Cl)c3cccnc23)cc(OC)c1OC", "values": [{"measurement": "AC50", "setting": "[1]", "result": "20 µM [rising, partial curve] [measured here: IkB-luc green channel]"}]}
{"smiles": "CCCN1CCN(CCCNC(=O)C2CCCN(c3nc4ccc(OCC)cc4s3)C2)CC1", "note": "(configuration not stated)", "values": [{"measurement": "AC50", "setting": "[1]", "result": "15.8 µM [falling, partial curve]"}]}
{"smiles": "Cc1ccc(Nc2c(-c3cccnc3)nc3ccc(Cl)cn23)cc1", "values": [{"measurement": "AC50", "setting": "[1]", "result": "31.6 µM [falling, partial curve]"}]}
{"smiles": "Nc1ncnc2c1nc(Br)n2[C@@H]1O[C@H]2COP(=O)(O)O[C@@H]2[C@H]1O", "values": [{"measurement": "AC50", "setting": "[1]", "result": "794 nM [rising, full curve] [measured here: IkB-luc green channel]"}]}
{"smiles": "O=C(Nc1ccc(S(=O)(=O)N2CCCC2)cc1)c1ccc(CN2CCOCC2)cc1", "values": [{"measurement": "AC50", "setting": "[1]", "result": "10 µM [falling, partial curve]"}]}
{"smiles": "CCc1ccccc1Nc1ncnc2c1cnn2-c1ccc(C)cc1C", "values": [{"measurement": "AC50", "setting": "[1]", "result": "0.794 µM [falling, full curve, poor fit]"}]}
{"smiles": "CC(C)COc1ccc(C(=O)Nc2nnc(S(=O)(=O)N(C)Cc3ccco3)s2)cc1", "values": [{"measurement": "AC50", "setting": "[1]", "result": "1.26 µM [falling, partial curve]"}]}
{"smiles": "COc1ccc(C(=O)OCC(=O)c2ccc(C)c(S(=O)(=O)N3CCOCC3)c2)cc1OC", "values": [{"measurement": "AC50", "setting": "[1]", "result": "7.94 µM [falling, partial curve]"}]}
{"smiles": "CCc1cccc(NC(c2ccccc2)c2nnc(-c3ccccc3F)o2)c1", "note": "(configuration not stated)", "values": [{"measurement": "AC50", "setting": "[1]", "result": "39.8 µM [falling, single point]"}]}
{"smiles": "Fc1ccc2[nH]c3c(N4CCN(c5ccccc5)CC4)ncnc3c2c1", "values": [{"measurement": "AC50", "setting": "[1]", "result": "3.98 µM [falling, full curve]"}]}
{"smiles": "CC(=O)N1CCC(C(=O)Nc2nc(-c3ccccc3)ns2)CC1", "values": [{"measurement": "AC50", "setting": "[1]", "result": "39.8 µM [falling, single point]"}]}
{"smiles": "CN(Cc1cc(=O)[nH]c2ccccc12)C(=O)c1ccccc1", "values": [{"measurement": "AC50", "setting": "[1]", "result": "0.316 µM [falling, full curve]"}]}
{"smiles": "Cc1ccc(-n2ncc(C(=O)NCCN3CCN(C)CC3)c2C2CCN(C(=O)OC(C)(C)C)CC2)cc1", "values": [{"measurement": "AC50", "setting": "[1]", "result": "39.8 µM [falling, single point]"}]}
{"smiles": "Cc1nc(C)c(-c2ccc(SCC(=O)Nc3cccc(C)c3C)nn2)s1", "values": [{"measurement": "AC50", "setting": "[1]", "result": "39.8 µM [falling, single point]"}]}
{"smiles": "Cc1ccccc1C(=O)NNc1ncnc2c1cnn2-c1cccc(Cl)c1", "values": [{"measurement": "AC50", "setting": "[1]", "result": "20 µM [falling, partial curve]"}]}
{"smiles": "CCOc1ccc(S(=O)(=O)Nc2cc(Cl)ccc2O)cc1", "values": [{"measurement": "AC50", "setting": "[1]", "result": "12.6 µM [falling, partial curve]"}]}
{"smiles": "CCCc1ccc(NC(=O)C2CCCN(c3cnccn3)C2)cc1", "note": "(configuration not stated)", "values": [{"measurement": "AC50", "setting": "[1]", "result": "31.6 µM [falling, single point]"}]}
{"smiles": "CCOc1ccc(Nc2nc(C)c(NC(=O)c3cccc(F)c3)c(Nc3ccc(OCC)cc3)n2)cc1", "values": [{"measurement": "AC50", "setting": "[1]", "result": "12.6 µM [falling, partial curve]"}]}
{"smiles": "COc1cccc(-c2oc3ccc(C)cc3c(=O)c2O)c1", "values": [{"measurement": "AC50", "setting": "[1]", "result": "31.6 µM [falling, single point]"}]}
{"smiles": "CCC1Oc2ccc(C)cc2N(CC(=O)N2CCN(c3ccccc3OC)CC2)C1=O", "note": "(configuration not stated)", "values": [{"measurement": "AC50", "setting": "[1]", "result": "39.8 µM [falling, single point]"}]}
{"smiles": "O=S(=O)(c1ccc(-c2csc(=Nc3ccc(F)cc3)n2CCCCCCO)cc1)N1CCCC1", "values": [{"measurement": "AC50", "setting": "[1]", "result": "3.16 µM [falling, full curve]"}]}
{"smiles": "Cc1cccc(OCC(=O)Nc2ccc3c(c2)nc(CN2CCCCC2)n3C)c1", "values": [{"measurement": "AC50", "setting": "[1]", "result": "12.6 µM [falling, single point]"}]}
{"smiles": "Cc1ccc(-n2ncc3c(N4CCN(Cc5ccccc5)CC4)ncnc32)cc1Cl", "values": [{"measurement": "AC50", "setting": "[1]", "result": "20 µM [falling, partial curve]"}]}
{"smiles": "CCc1cc(=O)[nH]c(SCc2nc(-c3cccc(Cl)c3)no2)n1", "values": [{"measurement": "AC50", "setting": "[1]", "result": "20 µM [falling, partial curve]"}]}
{"smiles": "CCOCCCn1c(SCC(=O)Nc2ccc(CC)cc2)nc2ccccc2c1=O", "values": [{"measurement": "AC50", "setting": "[1]", "result": "25.1 µM [falling, single point]"}]}
{"smiles": "CCn1c(=O)c(C(=O)Nc2nc3ccccc3[nH]2)c(O)c2ccccc21", "values": [{"measurement": "AC50", "setting": "[1]", "result": "0.126 µM [falling, full curve]"}]}
{"smiles": "Cc1ccccc1Cn1c(=O)c2c(nc3n2CCCN3Cc2ccccc2)n(C)c1=O", "values": [{"measurement": "AC50", "setting": "[1]", "result": "10 µM [falling, partial curve]"}]}
{"smiles": "C=CCn1c(=O)c(C(=O)Nc2ccccc2O)c(O)c2ccccc21", "values": [{"measurement": "AC50", "setting": "[1]", "result": "0.251 µM [falling, full curve]"}]}
{"smiles": "CCOC(=O)C1CCN(C(=O)c2ccc3c(c2)sc2nc(-c4ccc(OC)cc4)cn23)CC1", "values": [{"measurement": "AC50", "setting": "[1]", "result": "12.6 µM [falling, partial curve]"}]}
{"smiles": "C[N+](C)(C)CCC(=O)c1cccc2ccccc12", "values": [{"measurement": "AC50", "setting": "[2]", "result": "7.94 µM [falling, full curve, poor fit]"}, {"measurement": "AC50", "setting": "[3]", "result": "3.98 µM [falling, full curve]"}]}
